Measured values as given in the supplement of paper PMC10849652.
The list shows a part of the results.

The chains behind the UniProt entries cited, without tags or fusion partners. Where a name states a change or a piece, a line headed by the entry shows the natural chain unless it says otherwise.
UniProt Q96EE3: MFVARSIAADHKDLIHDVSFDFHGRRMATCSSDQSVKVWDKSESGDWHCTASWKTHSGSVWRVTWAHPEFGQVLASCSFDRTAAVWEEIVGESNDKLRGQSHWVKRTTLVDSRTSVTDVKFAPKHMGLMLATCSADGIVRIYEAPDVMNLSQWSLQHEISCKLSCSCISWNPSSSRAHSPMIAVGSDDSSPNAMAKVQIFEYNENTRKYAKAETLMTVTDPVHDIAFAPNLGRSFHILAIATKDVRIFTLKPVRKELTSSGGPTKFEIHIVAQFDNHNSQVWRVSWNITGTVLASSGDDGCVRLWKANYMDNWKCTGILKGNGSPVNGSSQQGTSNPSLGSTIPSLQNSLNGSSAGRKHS
UniProt A3KN83: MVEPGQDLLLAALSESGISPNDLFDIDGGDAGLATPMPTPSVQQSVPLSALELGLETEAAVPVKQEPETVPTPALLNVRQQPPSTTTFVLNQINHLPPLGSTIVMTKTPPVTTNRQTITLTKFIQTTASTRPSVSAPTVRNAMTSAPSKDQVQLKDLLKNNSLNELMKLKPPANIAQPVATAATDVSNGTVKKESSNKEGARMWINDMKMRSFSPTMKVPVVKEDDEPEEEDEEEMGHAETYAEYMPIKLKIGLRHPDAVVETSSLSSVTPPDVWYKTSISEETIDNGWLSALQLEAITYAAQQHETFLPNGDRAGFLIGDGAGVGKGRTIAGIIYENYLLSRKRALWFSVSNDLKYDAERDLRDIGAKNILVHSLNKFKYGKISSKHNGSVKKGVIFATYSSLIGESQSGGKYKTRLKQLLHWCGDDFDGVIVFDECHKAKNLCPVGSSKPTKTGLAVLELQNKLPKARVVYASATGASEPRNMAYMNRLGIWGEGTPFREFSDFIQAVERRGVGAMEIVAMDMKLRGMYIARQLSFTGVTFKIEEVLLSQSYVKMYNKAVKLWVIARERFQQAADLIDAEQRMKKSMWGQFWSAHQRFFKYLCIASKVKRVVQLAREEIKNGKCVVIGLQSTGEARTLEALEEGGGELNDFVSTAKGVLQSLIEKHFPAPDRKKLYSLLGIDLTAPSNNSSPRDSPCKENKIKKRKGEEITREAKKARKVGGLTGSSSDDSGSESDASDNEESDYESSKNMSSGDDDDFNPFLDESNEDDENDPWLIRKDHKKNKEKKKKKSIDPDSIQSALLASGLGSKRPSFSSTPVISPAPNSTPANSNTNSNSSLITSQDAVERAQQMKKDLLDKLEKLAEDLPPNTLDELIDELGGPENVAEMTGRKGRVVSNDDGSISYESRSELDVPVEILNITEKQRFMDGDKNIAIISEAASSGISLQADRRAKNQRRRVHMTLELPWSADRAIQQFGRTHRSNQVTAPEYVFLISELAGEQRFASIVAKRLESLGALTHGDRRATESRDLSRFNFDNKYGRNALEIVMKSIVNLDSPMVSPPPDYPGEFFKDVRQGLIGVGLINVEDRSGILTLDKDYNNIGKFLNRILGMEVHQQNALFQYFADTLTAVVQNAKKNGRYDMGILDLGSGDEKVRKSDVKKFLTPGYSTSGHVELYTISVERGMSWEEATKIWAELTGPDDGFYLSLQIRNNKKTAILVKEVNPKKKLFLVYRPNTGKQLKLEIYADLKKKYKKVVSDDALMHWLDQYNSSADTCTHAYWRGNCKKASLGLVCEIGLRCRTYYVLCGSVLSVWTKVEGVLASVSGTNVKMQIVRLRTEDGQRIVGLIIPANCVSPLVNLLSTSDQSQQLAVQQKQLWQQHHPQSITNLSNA
UniProt Q96NL6: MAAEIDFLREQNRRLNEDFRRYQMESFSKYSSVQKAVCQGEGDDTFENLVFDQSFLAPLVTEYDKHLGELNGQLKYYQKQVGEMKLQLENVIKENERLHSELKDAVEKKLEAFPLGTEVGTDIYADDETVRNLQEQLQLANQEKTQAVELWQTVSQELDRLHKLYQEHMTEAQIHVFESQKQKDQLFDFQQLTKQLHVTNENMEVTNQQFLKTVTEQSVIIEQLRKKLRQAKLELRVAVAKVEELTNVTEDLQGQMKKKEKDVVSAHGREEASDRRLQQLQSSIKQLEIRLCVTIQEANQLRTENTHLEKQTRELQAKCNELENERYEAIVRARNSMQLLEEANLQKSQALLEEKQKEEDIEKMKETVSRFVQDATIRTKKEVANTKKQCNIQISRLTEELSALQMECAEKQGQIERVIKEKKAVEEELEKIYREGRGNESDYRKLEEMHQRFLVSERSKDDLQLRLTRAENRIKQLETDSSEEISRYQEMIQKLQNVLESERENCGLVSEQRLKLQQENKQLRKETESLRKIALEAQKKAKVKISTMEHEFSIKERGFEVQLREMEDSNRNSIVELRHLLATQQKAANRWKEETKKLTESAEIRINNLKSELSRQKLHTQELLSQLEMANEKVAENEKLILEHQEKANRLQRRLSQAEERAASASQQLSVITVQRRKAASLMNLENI
UniProt Q9HCN8: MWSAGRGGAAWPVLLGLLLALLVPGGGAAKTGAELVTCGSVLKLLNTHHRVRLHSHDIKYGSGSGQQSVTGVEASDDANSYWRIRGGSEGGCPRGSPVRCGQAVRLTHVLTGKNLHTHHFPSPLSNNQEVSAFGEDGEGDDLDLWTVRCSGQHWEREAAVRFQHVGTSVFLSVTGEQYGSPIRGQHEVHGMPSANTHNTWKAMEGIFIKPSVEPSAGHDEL
UniProt P55735: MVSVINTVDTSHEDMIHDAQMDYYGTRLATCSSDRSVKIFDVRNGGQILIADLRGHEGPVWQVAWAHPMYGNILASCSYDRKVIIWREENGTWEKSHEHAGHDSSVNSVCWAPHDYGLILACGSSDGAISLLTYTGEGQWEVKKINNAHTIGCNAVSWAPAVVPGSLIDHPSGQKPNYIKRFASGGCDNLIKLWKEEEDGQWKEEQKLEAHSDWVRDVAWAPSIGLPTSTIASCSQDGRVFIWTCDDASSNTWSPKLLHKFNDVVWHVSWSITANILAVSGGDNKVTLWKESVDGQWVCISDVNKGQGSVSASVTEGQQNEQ
UniProt Q9UHR5: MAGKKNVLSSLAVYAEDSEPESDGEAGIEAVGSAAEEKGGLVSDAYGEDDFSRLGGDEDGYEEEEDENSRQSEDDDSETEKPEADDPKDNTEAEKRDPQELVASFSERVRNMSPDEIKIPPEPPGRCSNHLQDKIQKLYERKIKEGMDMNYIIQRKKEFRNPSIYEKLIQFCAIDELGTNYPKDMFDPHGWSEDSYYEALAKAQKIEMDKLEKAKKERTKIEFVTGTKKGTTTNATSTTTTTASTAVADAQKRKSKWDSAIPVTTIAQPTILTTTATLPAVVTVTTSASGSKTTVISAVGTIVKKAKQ
UniProt Q86SQ7: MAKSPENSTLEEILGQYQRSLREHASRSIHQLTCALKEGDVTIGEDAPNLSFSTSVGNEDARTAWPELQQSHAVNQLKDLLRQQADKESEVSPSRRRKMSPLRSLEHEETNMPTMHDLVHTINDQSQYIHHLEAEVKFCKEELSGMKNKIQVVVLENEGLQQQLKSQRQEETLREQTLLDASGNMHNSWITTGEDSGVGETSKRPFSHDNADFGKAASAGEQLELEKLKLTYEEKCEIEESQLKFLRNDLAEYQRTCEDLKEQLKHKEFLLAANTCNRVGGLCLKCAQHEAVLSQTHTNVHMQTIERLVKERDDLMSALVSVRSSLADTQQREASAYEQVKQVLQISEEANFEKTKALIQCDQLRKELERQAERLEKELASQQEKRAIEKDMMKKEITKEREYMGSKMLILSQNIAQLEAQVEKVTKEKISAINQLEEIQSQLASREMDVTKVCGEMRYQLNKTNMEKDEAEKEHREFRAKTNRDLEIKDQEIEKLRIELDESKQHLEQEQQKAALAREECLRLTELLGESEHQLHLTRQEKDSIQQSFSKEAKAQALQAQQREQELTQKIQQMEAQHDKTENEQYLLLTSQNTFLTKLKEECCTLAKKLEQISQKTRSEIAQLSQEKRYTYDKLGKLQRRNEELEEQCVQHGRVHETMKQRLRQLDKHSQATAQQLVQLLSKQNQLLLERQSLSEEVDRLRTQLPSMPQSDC
UniProt P60059: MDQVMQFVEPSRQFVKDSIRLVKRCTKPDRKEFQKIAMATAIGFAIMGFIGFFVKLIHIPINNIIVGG
UniProt O75880: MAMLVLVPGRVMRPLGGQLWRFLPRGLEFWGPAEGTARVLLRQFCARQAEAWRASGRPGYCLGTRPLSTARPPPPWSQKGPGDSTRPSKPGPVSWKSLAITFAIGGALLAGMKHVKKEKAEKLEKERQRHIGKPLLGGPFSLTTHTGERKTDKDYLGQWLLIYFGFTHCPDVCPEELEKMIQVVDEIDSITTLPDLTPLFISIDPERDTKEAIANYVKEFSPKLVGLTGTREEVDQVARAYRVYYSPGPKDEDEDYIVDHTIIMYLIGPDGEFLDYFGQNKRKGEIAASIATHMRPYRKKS
UniProt Q969E2: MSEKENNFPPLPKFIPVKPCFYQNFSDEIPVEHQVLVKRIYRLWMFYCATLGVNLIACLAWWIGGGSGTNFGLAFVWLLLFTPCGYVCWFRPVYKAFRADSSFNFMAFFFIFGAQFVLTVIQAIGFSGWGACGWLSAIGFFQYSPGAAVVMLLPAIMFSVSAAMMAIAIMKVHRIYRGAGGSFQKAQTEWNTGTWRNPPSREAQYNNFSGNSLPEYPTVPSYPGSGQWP
UniProt Q8WVM8, whole entry, looked up: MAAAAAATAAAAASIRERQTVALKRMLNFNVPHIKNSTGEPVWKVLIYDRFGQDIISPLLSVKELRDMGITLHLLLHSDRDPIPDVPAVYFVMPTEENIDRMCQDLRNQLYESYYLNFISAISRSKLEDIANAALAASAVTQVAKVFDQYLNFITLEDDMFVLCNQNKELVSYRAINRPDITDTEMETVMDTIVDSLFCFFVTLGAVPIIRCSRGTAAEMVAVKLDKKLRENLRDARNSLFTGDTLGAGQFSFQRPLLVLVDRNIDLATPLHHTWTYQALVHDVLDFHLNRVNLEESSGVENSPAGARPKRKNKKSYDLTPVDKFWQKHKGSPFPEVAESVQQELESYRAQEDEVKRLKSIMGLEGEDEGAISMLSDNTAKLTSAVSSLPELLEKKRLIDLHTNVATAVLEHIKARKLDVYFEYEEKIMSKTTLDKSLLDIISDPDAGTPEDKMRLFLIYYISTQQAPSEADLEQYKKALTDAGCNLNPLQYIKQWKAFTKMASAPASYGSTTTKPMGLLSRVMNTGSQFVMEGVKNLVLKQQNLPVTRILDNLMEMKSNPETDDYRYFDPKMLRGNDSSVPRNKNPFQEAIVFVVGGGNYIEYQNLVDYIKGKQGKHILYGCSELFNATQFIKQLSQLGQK
UniProt Q9HB40: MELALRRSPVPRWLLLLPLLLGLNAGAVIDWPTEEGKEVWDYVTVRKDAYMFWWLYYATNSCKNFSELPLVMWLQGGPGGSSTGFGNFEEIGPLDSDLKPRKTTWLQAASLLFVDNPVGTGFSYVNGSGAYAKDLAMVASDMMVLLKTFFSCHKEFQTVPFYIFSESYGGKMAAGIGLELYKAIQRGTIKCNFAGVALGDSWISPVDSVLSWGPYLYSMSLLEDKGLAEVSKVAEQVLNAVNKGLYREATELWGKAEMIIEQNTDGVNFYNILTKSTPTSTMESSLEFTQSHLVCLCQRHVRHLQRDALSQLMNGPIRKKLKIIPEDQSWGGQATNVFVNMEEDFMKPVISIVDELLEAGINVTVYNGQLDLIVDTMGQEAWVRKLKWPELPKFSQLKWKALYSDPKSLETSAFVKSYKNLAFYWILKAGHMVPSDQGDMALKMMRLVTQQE
UniProt Q96KG9: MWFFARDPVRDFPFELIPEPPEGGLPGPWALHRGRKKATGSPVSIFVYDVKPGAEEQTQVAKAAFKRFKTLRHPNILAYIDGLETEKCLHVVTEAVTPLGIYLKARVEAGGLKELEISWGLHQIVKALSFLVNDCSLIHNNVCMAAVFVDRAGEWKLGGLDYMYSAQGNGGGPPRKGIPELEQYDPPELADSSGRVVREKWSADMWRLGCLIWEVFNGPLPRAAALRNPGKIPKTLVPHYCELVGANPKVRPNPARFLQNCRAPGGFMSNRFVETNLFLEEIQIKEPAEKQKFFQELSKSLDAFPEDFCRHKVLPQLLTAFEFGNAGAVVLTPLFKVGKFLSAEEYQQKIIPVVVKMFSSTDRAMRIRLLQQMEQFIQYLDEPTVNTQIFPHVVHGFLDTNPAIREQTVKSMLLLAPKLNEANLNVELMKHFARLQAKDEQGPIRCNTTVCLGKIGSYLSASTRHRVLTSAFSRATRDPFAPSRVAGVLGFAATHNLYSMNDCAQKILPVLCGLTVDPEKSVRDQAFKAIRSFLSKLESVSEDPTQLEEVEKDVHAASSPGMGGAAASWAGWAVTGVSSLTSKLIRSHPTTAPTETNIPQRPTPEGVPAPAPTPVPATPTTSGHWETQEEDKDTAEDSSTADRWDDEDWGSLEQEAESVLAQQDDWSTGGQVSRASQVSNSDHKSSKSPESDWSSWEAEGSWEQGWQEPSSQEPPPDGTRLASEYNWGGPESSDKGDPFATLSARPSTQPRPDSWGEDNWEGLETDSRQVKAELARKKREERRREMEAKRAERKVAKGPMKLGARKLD

What was measured:
Experiment in all cases: log2 fold change, soluble protein after heating vs DMSO (PISA); higher = thermal stabilisation; K562 lysate, 10 uM; active = over 0.2 and 3.5 SD of the protein, either way, in both replicates (recomputed)
[1] = compound: CCCS(=O)(=O)Nc1ccc(F)c(C(=O)c2c[nH]c3ncc(-c4ccc(Cl)cc4)cc23)c1F [vemurafenib]
How it was run: (§1)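 K562 pellets were dounce-homogenised in PBS pH 7.4 containing 1 mM MgCl2, and the crude extract, at 1 mg/mL protein, was exposed to 10 μM compound for 30 min. Aliquots were heated for 3 min across 48°C-58°C, pooled, brought to 0.5% NP-40 at 4°C and spun at 21,000xg for 90 min, with the supernatant taken as soluble protein. TMTpro 16plex LC-MS/MS with equalised channel sums quantified that protein. Values are log-two fold changes in thermal stability relative to solvent controls, taken from duplicates.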

[2] = compound: CCCS(=O)(=O)Nc1ccc(F)c(C(=O)c2c[nH]c3ncc(Cl)cc23)c1F
How it was run: as §1

[3] = compound: CCN(CCCOc1ccc2c(Nc3cc(CC(=O)Nc4cccc(F)c4)[nH]n3)ncnc2c1)CCOP(=O)(O)O [barasertib]
How it was run: as §1

[4] = compound: CC[C@@H]1C(=O)N(C)c2cnc(Nc3ccc(C(=O)NC4CCN(C)CC4)cc3OC)nc2N1C1CCCC1
How it was run: as §1

[5] = compound: CC[C@@H]1C(=O)N(C)c2cnc(Nc3ccc(C(=O)N[C@H]4CC[C@H](N5CCN(CC6CC6)CC5)CC4)cc3OC)nc2N1C(C)C [volasertib]
How it was run: as §1

[6] = compound: CCn1c(C(=O)N(C2CC2)C2CC2)cc2c3c(ncn3C)c(Nc3cc(C)n(C)n3)nc21
How it was run: as §1

[7] = compound: CCn1cc(-c2ccnc3[nH]c(-c4cccc(CN(C)C)c4)cc23)c(-c2ccc(NC(=O)N(C)C)cc2)n1
How it was run: as §1

[8] = compound: CN1CCC(CNc2ccc3ncc(-c4cccc(OC(F)(F)F)c4)n3n2)CC1
How it was run: as §1

[9] = compound: CN1CCN(CCOc2cc(OC3CCOCC3)c3c(Nc4c(Cl)ccc5c4OCO5)ncnc3c2)CC1 [saracatinib]
How it was run: as §1

[10] = compound: CN1CCN(c2nc(C3=C(c4c[nH]c5ccccc45)C(=O)NC3=O)c3ccccc3n2)CC1 [sotrastaurin]
How it was run: as §1

[11] = compound: CN1CC[C@H](c2c(O)cc(O)c3c(=O)cc(-c4ccccc4Cl)oc23)[C@H](O)C1 [alvocidib]
How it was run: as §1

[12] = compound: CN1CCc2c(c3ccccc3n2Cc2ccc(C(=O)NO)cc2)C1 [Tubastatin A]
How it was run: as §1

[13] = compound: CNC(=O)C1=CC=CC=C1NC2=NC(=NC=C2Cl)NC3=C(C=C(C=C3)N4CCOCC4)OC
How it was run: as §1

[14] = compound: CNC(=O)c1ccc(Nc2ncc(C(F)(F)F)c(NCc3nccnc3N(C)S(C)(=O)=O)n2)cc1 [defactinib]
How it was run: as §1

[15] = compound: CNc1nc(-c2ccc3c(N)n[nH]c3c2)cc(N2C[C@@H](C(=O)NC3CCCCC3)CC[C@H]2C)n1
How it was run: as §1

[16] = compound: COC(=O)N[C@@H](C)CNc1nccc(-c2cn(C(C)C)nc2-c2cc(Cl)cc(NS(C)(=O)=O)c2F)n1 [encorafenib]
How it was run: as §1

[17] = compound: COC(=O)[C@H](CCSC)NC(=O)C1=C(C=C(C=C1)NC[C@H](CS)N)C2=CC=CC=C2
How it was run: as §1

[18] = compound: COc1cc(Nc2ncc3c(n2)-c2ccc(Cl)cc2C(c2c(F)cccc2OC)=NC3)ccc1C(=O)O [alisertib]
How it was run: as §1

[19] = compound: COc1cc2nc(-c3cc(F)ccc3O)nc(N[C@@H]3CNC[C@H]3C(C)(C)O)c2cc1OC
How it was run: as §1

[20] = compound: COc1cc2ncnc(Nc3ccc(F)c(Cl)c3)c2cc1OCCCN1CCOCC1 [gefitinib]
How it was run: as §1

Target | log2 fold change [1] | log2 fold change [2] | log2 fold change [3] | log2 fold change [4] | log2 fold change [5] | log2 fold change [6] | log2 fold change [7] | log2 fold change [8] | log2 fold change [9] | log2 fold change [10] | log2 fold change [11] | log2 fold change [12] | log2 fold change [13] | log2 fold change [14] | log2 fold change [15] | log2 fold change [16] | log2 fold change [17] | log2 fold change [18] | log2 fold change [19] | log2 fold change [20]
SEH1L isoform 1 (UniProt Q96EE3) | inactive: -0.029 | inactive: -0.001 | inactive: 0.004 | inactive: 0.069 | active: 0.216 | inactive: -0.015 | inactive: -0.022 | inactive: 0.021 | inactive: -0.005 | inactive: -0.01 | inactive: -0.042 | inactive: 0 | inactive: 0 | inactive: -0.028 | inactive: -0.014 | inactive: -0.007 | inactive: -0.077 | inactive: 0.001 | inactive: 0.01 | inactive: -0.004
SBNO1 (UniProt A3KN83) | inactive: -0.039 | inactive: 0.006 | inactive: 0.016 | inactive: 0.031 | inactive: -0.011 | inactive: 0.008 | inactive: -0.026 | inactive: 0.025 | inactive: -0.013 | inactive: 0.019 | inactive: -0.01 | inactive: 0.01 | inactive: 0.017 | inactive: -0.002 | inactive: 0.002 | inactive: 0.015 | inactive: 0 | inactive: -0.008 | inactive: -0.006 | inactive: 0.003
SCLT1 (UniProt Q96NL6) | inactive: 0.041 | inactive: -0.003 | inactive: 0.098 | inactive: -0.037 | inactive: -0.018 | inactive: -0.022 | inactive: 0.014 | inactive: 0.17 | inactive: -0.014 | inactive: 0.021 | inactive: -0.08 | inactive: 0.061 | inactive: 0.007 | inactive: -0.044 | inactive: 0.035 | inactive: 0.07 | inactive: 0.228 | inactive: 0.033 | inactive: 0.055 | inactive: -0.018
SDF2L1 (UniProt Q9HCN8) | inactive: 0.018 | inactive: 0.011 | inactive: -0.021 | inactive: 0.001 | inactive: 0.019 | inactive: 0.014 | inactive: -0.166 | inactive: 0.089 | inactive: -0.001 | inactive: -0.009 | inactive: 0.004 | inactive: 0.03 | inactive: 0.009 | inactive: -0.005 | inactive: 0.032 | inactive: 0.026 | inactive: -0.04 | inactive: 0.055 | inactive: -0.007 | inactive: -0.025
SEC13 isoform 3 (UniProt P55735) | inactive: -0.001 | inactive: -0.004 | inactive: -0.031 | inactive: -0.013 | inactive: 0.007 | inactive: 0.003 | active: 0.507 | inactive: -0.042 | inactive: -0.027 | inactive: -0.015 | inactive: 0.107 | inactive: 0.029 | inactive: -0.024 | inactive: -0.06 | inactive: -0.064 | inactive: 0.002 | inactive: -0.039 | inactive: 0.02 | inactive: -0.004 | inactive: 0.03
SAP30BP (UniProt Q9UHR5) | inactive: 0.019 | inactive: 0 | inactive: 0 | inactive: 0.068 | inactive: 0.011 | inactive: -0.059 | inactive: -0.039 | inactive: 0.022 | inactive: -0.015 | inactive: -0.004 | inactive: -0.079 | inactive: 0.026 | inactive: -0.033 | inactive: 0.014 | inactive: 0.046 | inactive: 0.062 | inactive: -0.024 | inactive: -0.064 | inactive: 0.023 | inactive: 0.03
SDCCAG8 (UniProt Q86SQ7) | inactive: 0.021 | inactive: -0.035 | inactive: 0.045 | inactive: 0.032 | inactive: 0.13 | inactive: -0.053 | inactive: -0.006 | inactive: 0.01 | inactive: -0.009 | inactive: -0.026 | inactive: 0.019 | inactive: -0.012 | inactive: -0.013 | inactive: 0.03 | inactive: 0.059 | inactive: 0.069 | inactive: -0.067 | inactive: -0.022 | inactive: 0.019 | inactive: 0.027
SEC61G (UniProt P60059) | inactive: 0.015 | inactive: -0.079 | inactive: 0.175 | inactive: 0.159 | inactive: 0.033 | inactive: -0.067 | inactive: -0.118 | inactive: 0.405 | inactive: -0.276 | inactive: -0.184 | inactive: -0.107 | inactive: 0.063 | inactive: 0.09 | inactive: 0.045 | inactive: 0.137 | inactive: -0.02 | inactive: 0.067 | inactive: 0.053 | inactive: 0.009 | inactive: 0.036
SCO1 (UniProt O75880) | inactive: -0.027 | inactive: -0.012 | inactive: -0.008 | inactive: -0.009 | inactive: 0.025 | inactive: -0.027 | inactive: -0.01 | inactive: 0.016 | inactive: 0.006 | inactive: 0.016 | inactive: 0.002 | inactive: -0.031 | inactive: -0.051 | inactive: -0.004 | inactive: 0.053 | inactive: -0.004 | active: -0.57 | inactive: -0.096 | inactive: 0.014 | inactive: -0.015
SART3, A0A499FI31 | inactive: 0.005 | inactive: 0.007 | inactive: -0.03 | inactive: -0.013 | inactive: 0.001 | inactive: -0.012 | inactive: 0.065 | inactive: -0.067 | inactive: 0 | inactive: -0.014 | inactive: 0.021 | inactive: -0.064 | inactive: 0.014 | inactive: 0.003 | inactive: -0.017 | inactive: -0.006 | inactive: 0.057 | inactive: -0.003 | inactive: 0.004 | inactive: 0.013
SCAMP4 (UniProt Q969E2) | inactive: 0.05 | inactive: 0.017 | inactive: -0.015 | inactive: 0.052 | inactive: 0.065 | inactive: -0.02 | inactive: 0.055 | inactive: 0.041 | inactive: 0.049 | inactive: -0.068 | inactive: 0 | inactive: 0.025 | inactive: 0.029 | inactive: -0.106 | inactive: 0.041 | inactive: 0.045 | inactive: -0.049 | inactive: 0.005 | inactive: 0.052 | inactive: 0.023
SDAD1 (UniProt Q9NVU7) | inactive: -0.011 | inactive: 0.026 | inactive: -0.002 | inactive: 0.036 | inactive: -0.018 | inactive: 0.012 | inactive: -0.018 | inactive: -0.002 | inactive: -0.014 | inactive: 0.016 | inactive: 0.042 | inactive: -0.004 | inactive: 0.003 | inactive: 0.005 | inactive: 0.048 | inactive: 0.045 | inactive: -0.031 | inactive: 0.007 | inactive: -0.016 | inactive: -0.018
SCD (UniProt O00767) | inactive: -0.03 | inactive: 0.111 | inactive: 0.042 | inactive: 0.006 | inactive: 0.098 | inactive: -0.082 | active: -0.504 | inactive: 0.212 | inactive: 0.071 | inactive: 0.084 | inactive: -0.138 | inactive: -0.015 | inactive: -0.014 | inactive: -0.02 | inactive: -0.091 | inactive: -0.097 | inactive: 0.076 | inactive: 0.006 | inactive: 0.004 | inactive: 0.011
SCFD1 (UniProt Q8WVM8) | inactive: 0.007 | inactive: 0.001 | inactive: 0.021 | inactive: -0.011 | inactive: -0.045 | inactive: 0.021 | inactive: -0.036 | inactive: -0.002 | inactive: 0.038 | inactive: 0.043 | inactive: 0.022 | inactive: -0.037 | inactive: 0.027 | inactive: 0.019 | inactive: -0.009 | inactive: 0.014 | inactive: 0.078 | inactive: 0.016 | inactive: 0.005 | inactive: -0.034
SCPEP1 (UniProt Q9HB40) | inactive: 0.009 | inactive: 0.016 | inactive: 0.073 | inactive: -0.148 | inactive: -0.076 | inactive: -0.015 | inactive: 0.01 | inactive: -0.005 | inactive: 0.022 | inactive: 0.017 | inactive: -0.034 | inactive: 0.107 | inactive: -0.011 | inactive: 0.004 | inactive: -0.017 | inactive: -0.023 | inactive: 0.117 | inactive: -0.016 | inactive: 0.011 | inactive: 0.006
SCYL1 (UniProt Q96KG9) | inactive: 0.054 | inactive: -0.016 | inactive: -0.038 | inactive: 0.054 | inactive: 0 | inactive: 0.027 | inactive: 0.039 | inactive: 0.024 | inactive: -0.009 | inactive: 0.041 | inactive: -0.041 | inactive: -0.032 | inactive: 0.051 | inactive: 0.031 | inactive: 0.037 | inactive: 0.081 | inactive: -0.039 | inactive: 0.032 | inactive: 0.042 | inactive: 0.034

A second format for some results above.
Target	log2 fold change [1]	log2 fold change [2]	log2 fold change [3]	log2 fold change [4]	log2 fold change [5]	log2 fold change [6]	log2 fold change [7]	log2 fold change [8]	log2 fold change [9]	log2 fold change [10]	log2 fold change [11]	log2 fold change [12]	log2 fold change [13]	log2 fold change [14]	log2 fold change [15]	log2 fold change [16]	log2 fold change [17]	log2 fold change [18]	log2 fold change [19]	log2 fold change [20]
SEH1L isoform 1 (UniProt Q96EE3)	inactive: -0.029	inactive: -0.001	inactive: 0.004	inactive: 0.069	active: 0.216	inactive: -0.015	inactive: -0.022	inactive: 0.021	inactive: -0.005	inactive: -0.01	inactive: -0.042	inactive: 0	inactive: 0	inactive: -0.028	inactive: -0.014	inactive: -0.007	inactive: -0.077	inactive: 0.001	inactive: 0.01	inactive: -0.004
SCPEP1 (UniProt Q9HB40)	inactive: 0.009	inactive: 0.016	inactive: 0.073	inactive: -0.148	inactive: -0.076	inactive: -0.015	inactive: 0.01	inactive: -0.005	inactive: 0.022	inactive: 0.017	inactive: -0.034	inactive: 0.107	inactive: -0.011	inactive: 0.004	inactive: -0.017	inactive: -0.023	inactive: 0.117	inactive: -0.016	inactive: 0.011	inactive: 0.006
